Cell number after 72 h of treatment

Compounds and concentrations:
OSU-03012: NCC(=O)Nc1ccc(-n2nc(C(F)(F)F)cc2-c2ccc3c(ccc4ccccc43)c2)cc1 at 5 µM
PF-04217903: OCCn1cc(-c2cnc3nnn(Cc4ccc5ncccc5c4)c3n2)cn1 at 5 µM
tamatinib: COc1cc(Nc2ncc(F)c(Nc3ccc4c(n3)NC(=O)C(C)(C)O4)n2)cc(OC)c1OC at 2 µM
PLX4720: CCCS(=O)(=O)Nc1ccc(F)c(C(=O)c2c[nH]c3ncc(Cl)cc23)c1F at 0.4 µM
embelin: CCCCCCCCCCCC1=C(O)C(=O)C=C(O)C1=O at 6 µM
LFM-A13: C/C(O)=C(\C#N)C(=O)Nc1cc(Br)ccc1Br at 10 µM
GSK650394: O=C(O)c1ccc(-c2c[nH]c3ncc(-c4ccccc4)cc23)cc1C1CCCC1 at 0.8 µM
cisplatin: N.N.[Cl][Pt][Cl] at 8 µM
AS-252424: O=C1NC(=O)/C(=C/c2ccc(-c3ccc(F)cc3O)o2)S1 at 5 µM
SNS-314: O=C(Nc1cccc(Cl)c1)Nc1ncc(CCNc2ncnc3ccsc23)s1 at 0.004 µM
selumetinib: Cn1cnc2c(F)c(Nc3ccc(Br)cc3Cl)c(C(=O)NOCCO)cc21 at 0.075 µM
XAV939: Oc1nc(-c2ccc(C(F)(F)F)cc2)nc2c1CSCC2 at 10 µM
tipifarnib: Cn1cncc1[C@@](N)(c1ccc(Cl)cc1)c1ccc2c(c1)c(-c1cccc(Cl)c1)cc(=O)n2C at 0.05 µM
bexarotene: C=C(c1ccc(C(=O)O)cc1)c1cc2c(cc1C)C(C)(C)CCC2(C)C at 10 µM
NVP-BEZ235: Cn1c(=O)n(-c2ccc(C(C)(C)C#N)cc2)c2c3cc(-c4cnc5ccccc5c4)ccc3ncc21 at 0.02 µM
GW441756: Cn1cc(/C=C2\C(=O)Nc3cccnc32)c2ccccc21 at 2 µM
darinaparsin: C[As](C)SC[C@H](NC(=O)CC[C@H](N)C(=O)O)C(=O)NCC(=O)O at 2 µM
crizotinib: C[C@@H](Oc1cc(-c2cnn(C3CCNCC3)c2)cnc1N)c1c(Cl)ccc(F)c1Cl at 1 µM
sorafenib: CNC(=O)c1cc(Oc2ccc(NC(=O)Nc3ccc(Cl)c(C(F)(F)F)c3)cc2)ccn1 at 2 µM
TCS401: O=C(O)C(=O)Nc1sc2c(c1C(=O)O)CCNC2 at 8.33 µM

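The test systems are human melanoma cell lines, treated with two drugs together for 72 h and then stained and imaged. The read-out is cell count (nuclei) in % of the DMSO control; lower values mean stronger growth inhibition or killing. Every drug was used at one fixed concentration, the higher of two screened. No replicate spread is given; individual values may be noisy.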 Only some of the drugs and lines screened are listed, without regard to their results.

Drugs	WM3619	WM451Lu	C32	COLO 792	COLO 829	COLO 800
NVP-BEZ235 and darinaparsin	66.8	94.5	110	51.0	65.2	49.2
GW441756 and PF-04217903	93.0	114	109	96.0	115	68.2
sorafenib and embelin	69.8	111	99.1	63.0	62.2	110
NVP-BEZ235 and OSU-03012	9.1	70.7	76.6	50.2	81.4	39.2
AS-252424 and selumetinib	61.0	56.8	82.0	51.7	107	74.9
OSU-03012 and selumetinib	85.8	67.1	108	91.2	90.0	65.9
bexarotene and NVP-BEZ235	62.6	81.9	83.0	55.2	62.7	103
AS-252424 and SNS-314	53.6	49.6	94.2	53.1	66.4	45.3
selumetinib and PLX4720	76.6	46.9	82.7	77.8	51.2	131
LFM-A13 and selumetinib	82.8	65.8	84.8	76.5	90.4	65.2
bexarotene and crizotinib	92.3	77.2	75.7	69.7	71.6	73.0
sorafenib and SNS-314	73.4	37.2	79.8	45.8	57.4	45.6
PLX4720 and bexarotene	76.4	55.6	81.1	78.9	64.7	85.9
tamatinib and crizotinib	77.6	69.0	89.7	36.9	71.2	40.3
GSK650394 and bexarotene	41.2	81.8	107	79.5	81.5	124
AS-252424 and bexarotene	71.1	117	106	80.7	89.9	59.3
crizotinib and PF-04217903	70.5	70.7	78.1	79.3	64.8	34.4
darinaparsin and AS-252424	77.2	88.6	102	89.8	105	74.4
embelin and NVP-BEZ235	72.0	80.9	94.5	56.2	86.8	50.1
XAV939 and bexarotene	71.3	88.1	125	86.6	101	92.6
SNS-314 and crizotinib	84.9	56.7	58.5	45.8	59.4	29.1
GSK650394 and PF-04217903	87.5	102	89.8	70.4	69.4	51.0
GSK650394 and TCS401	88.2	99.5	104	82.5	98.1	76.9
LFM-A13 and cisplatin	87.0	79.3	105	98.4	92.1	55.8
cisplatin and embelin	91.3	98.7	96.9	89.7	91.0	86.2
GW441756 and cisplatin	75.0	112	113	102	85.5	41.5
PF-04217903 and tipifarnib	73.5	72.9	85.0	86.0	88.0	60.0
cisplatin and GSK650394	88.4	110	111	85.4	126	67.1
PLX4720 and GW441756	88.0	67.9	95.3	107	101	115
cisplatin and tamatinib	69.0	62.3	90.8	54.2	79.3	61.8
crizotinib and darinaparsin	111	77.8	85.0	110	112	111
PF-04217903 and SNS-314	70.4	57.1	76.4	57.4	87.7	44.6
TCS401 and tamatinib	72.4	62.7	97.8	49.4	80.5	77.5
OSU-03012 and tipifarnib	1.8	68.4	92.7	86.8	74.3	72.8
NVP-BEZ235 and selumetinib	47.5	44.8	79.8	53.0	78.0	66.1
SNS-314 and TCS401	86.1	44.2	78.1	65.6	74.4	53.0
sorafenib and GSK650394	87.8	122	100	105	102	128
bexarotene and LFM-A13	139	71.7	117	101	82.5	110

For reference, 4 entries once more:

Drugs	WM3619	WM451Lu	C32	COLO 792	COLO 829	COLO 800
LFM-A13 and cisplatin	87.0	79.3	105	98.4	92.1	55.8
sorafenib and SNS-314	73.4	37.2	79.8	45.8	57.4	45.6
PF-04217903 and tipifarnib	73.5	72.9	85.0	86.0	88.0	60.0
AS-252424 and bexarotene	71.1	117	106	80.7	89.9	59.3

Source: doi:10.1371/journal.pone.0140310, primary screening data, rounded.